Experimental data from the supplement of paper PMC4604168 (melanoma cell lines).
The other results are listed elsewhere or left out. Many values rest on one well or one pass, so single values are uncertain.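 Imaging used 1,536-well plates; nuclei positive for cleaved PARP by antibody were divided by total DNA-stained nuclei to yield the apoptosis fraction. Doses for screening kept most cells viable, and cell lines differ markedly in resting and induced cleaved-PARP levels.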

system: CBRC014 (line from a melanoma biopsy); experiment: cleaved PARP positive nuclei fraction relative to DMSO control; melanoma cells; higher = more apoptosis; conditions: library dose: low library concentration; 72 h

Compound	cleaved PARP positive nuclei fraction [%]
Cc1cc(SCc2sc(-c3ccc(C(F)(F)F)c(F)c3)nc2C)ccc1OCC(=O)O + c1cc(-c2cnn3cc(-c4ccc(OCCN5CCCCC5)cc4)cnc23)ccn1 [Dorsomorphin] (first compound 2 µM, partner dose 0.4 µM)	104
C#Cc1cccc(Nc2ncnc3cc(OCCOC)c(OCCOC)cc23)c1 [erlotinib] + C/C(O)=C(\C#N)C(=O)Nc1cc(Br)ccc1Br [LFM-A13] (first compound 0.8 µM, partner dose 2 µM)	80.6
C/C(O)=C(\C#N)C(=O)Nc1cc(Br)ccc1Br + O=c1cc(-c2cccc3c2Sc2ccccc2S3)oc(N2CCOCC2)c1 [KU55933] (first compound 2 µM, partner dose 1 µM)	104
Cc1cc(SCc2sc(-c3ccc(C(F)(F)F)c(F)c3)nc2C)ccc1OCC(=O)O + Oc1cc(-c2nc(-c3ccccc3)[nH]c2-c2ccncc2)ccc1Cl [L779450] (first compound 2 µM, partner dose 0.2 µM)	95.6
O=C(Nc1cccc(Cl)c1)Nc1ncc(CCNc2ncnc3ccsc23)s1 + O=C(Oc1ccc([N+](=O)[O-])cc1)N1CCC(C(O)(c2ccc3c(c2)OCO3)c2ccc3c(c2)OCO3)CC1 [JZL184] (first compound 0.0008 µM, partner dose 1 µM)	90.5
COc1ccc(-c2ccc3c(N4CCOCC4)nc(N4C[C@@H](C)O[C@@H](C)C4)nc3n2)cc1CO + O=C(Oc1ccc([N+](=O)[O-])cc1)N1CCC(C(O)(c2ccc3c(c2)OCO3)c2ccc3c(c2)OCO3)CC1 [JZL184] (first compound 0.02 µM, partner dose 1 µM)	95.4
Cc1nc(Nc2ncc(C(=O)Nc3c(C)cccc3Cl)s2)cc(N2CCN(CCO)CC2)n1 [dasatanib] + C/C(O)=C(\C#N)C(=O)Nc1cc(Br)ccc1Br [LFM-A13] (first compound 0.004 µM, partner dose 2 µM)	107
COCC[n+]1c2c(n(Cc3cnccn3)c1C)C(=O)c1ccccc1C2=O + Cc1cc(SCc2sc(-c3ccc(C(F)(F)F)c(F)c3)nc2C)ccc1OCC(=O)O [GW0742] (first compound 0.0004 µM, partner dose 2 µM)	89.4
COc1cc(N2CCC(N3CCN(C)CC3)CC2)ccc1Nc1ncc(Cl)c(Nc2ccccc2S(=O)(=O)C(C)C)n1 + O=C(Oc1ccc([N+](=O)[O-])cc1)N1CCC(C(O)(c2ccc3c(c2)OCO3)c2ccc3c(c2)OCO3)CC1 [JZL184] (first compound 0.08 µM, partner dose 1 µM)	85.6
NCC(=O)Nc1ccc(-n2nc(C(F)(F)F)cc2-c2ccc3c(ccc4ccccc43)c2)cc1 + Cc1cc(SCc2sc(-c3ccc(C(F)(F)F)c(F)c3)nc2C)ccc1OCC(=O)O [GW0742] (first compound 1 µM, partner dose 2 µM)	98.1
C/C(O)=C(\C#N)C(=O)Nc1cc(Br)ccc1Br + Cn1cc(/C=C2\C(=O)Nc3cccnc32)c2ccccc21 [GW441756] (first compound 2 µM, partner dose 0.4 µM)	90.3
C[As](C)SC[C@H](NC(=O)CC[C@H](N)C(=O)O)C(=O)NCC(=O)O [Darinaparsin] + c1cc(-c2cnn3cc(-c4ccc(OCCN5CCCCC5)cc4)cnc23)ccn1 [Dorsomorphin] (first compound 0.4 µM, partner dose 0.4 µM)	150
CCc1ccc(CCOc2ccc(CC3SC(=O)NC3=O)cc2)nc1 (stereo not given) [pioglitazone] + C/C(O)=C(\C#N)C(=O)Nc1cc(Br)ccc1Br [LFM-A13] (first compound 2 µM, partner dose 2 µM)	196
Nc1cccc2c1CN(C1CCC(=O)NC1=O)C2=O (stereo not given) [lenalidomide] + Cc1cc(SCc2sc(-c3ccc(C(F)(F)F)c(F)c3)nc2C)ccc1OCC(=O)O [GW0742] (first compound 1 µM, partner dose 2 µM)	94.7
Cc1cc(SCc2sc(-c3ccc(C(F)(F)F)c(F)c3)nc2C)ccc1OCC(=O)O + CC(C)CCN1c2nc(Nc3cc(F)c(O)c(F)c3)ncc2N(C)C(=O)C1C [BID1870] (first compound 2 µM, partner dose 0.2 µM)	121

A second format for some results above:

| Compound | cleaved PARP positive nuclei fraction [%] |
| --- | --- |
| Cc1cc(SCc2sc(-c3ccc(C(F)(F)F)c(F)c3)nc2C)ccc1OCC(=O)O + c1cc(-c2cnn3cc(-c4ccc(OCCN5CCCCC5)cc4)cnc23)ccn1 [Dorsomorphin] (first compound 2 µM, partner dose 0.4 µM) | 104 |
| COc1ccc(-c2ccc3c(N4CCOCC4)nc(N4C[C@@H](C)O[C@@H](C)C4)nc3n2)cc1CO + O=C(Oc1ccc([N+](=O)[O-])cc1)N1CCC(C(O)(c2ccc3c(c2)OCO3)c2ccc3c(c2)OCO3)CC1 [JZL184] (first compound 0.02 µM, partner dose 1 µM) | 95.4 |
